Screening data

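Genome-wide siRNA knockdown in TC32 Ewing sarcoma cells, comparing luciferase light from an NR0B1-promoter reporter with a CMV-promoter reporter 48 hours after transfection. Each siRNA was applied at 20 nM. A z-score of the log NR0B1-over-CMV signal, less the median of siRNAs with the same seed; more negative means a stronger specific loss of the NR0B1 reporter.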

This is part of the screen; most of the strongest results are not listed here. Sequences are the guide (antisense) strand, without overhang.

Sequence | target gene | seed-corrected z-score
UGCGCUCUAAGGCAACUCG | ALS2CL | -0.4749
AAAGUUCUUAGCAAACCGG | UAP1L1 | -1.043
UCACCCUGCAAUACAGUCU | MAFK | -0.03005
UGUUUCCUCAGCUUAGACG | ZNF584 | -1.035
UGGACAUCAAUUCUUGGAC | MTUS2 | 1.585
UAUCUAAUUAGCAAAUAAC | GJB2 | 0.3172
UACUGUAGACAUACAAGCG | DISP3 | 1.902
UUCAAUGCAGAGACAAACC | CSRNP3 | 1.122
UCUCGGAACAGACUGGUUC | LOC79999 | 0.3683
UCAGGAACGGCUUUGAUGU | DCTN3 | -1.009
UUUGAUCUACAGGAAAAGG | BACH2 | -0.06695
UCAACUUCUAGGAAUUGAC | HLA-C | 0.788
UGAAUUGUUGGAAUAAGGG | FAM13C | 0.2883
CACCUCAGCAUGAUGGUUU | FCGR2A | 0.1615
AAUUCGUUAGCUUUGUCAC | PRDX3 | 0.5406
UGAAAGGACAUCUACAUCU | CCDC51 | -0.2324
UUAAAUGUCAUUGUGGUUG | TOMM5 | 0.01119
UAUCAGACUCUCCAGAUUG | FNIP1 | 0.08508
UUCAGAGAUAUGGUUCUCC | FAM221B | -0.319
AAGGCAAUAGAUGUAUUCC | CNGA2 | 0.3686
UGAAUUUUAAGUAGUCUCU | COA6 | 0.4129
UGAUCACUCAGAAACGUCG | KRTAP5-2 | -1.948
UUACUGGUCAUGUUAGGAG | VAMP1 | -0.0005411
UGUGCAAUCAAGUAGGAGC | SLC44A2 | 0.5101
UUCUUGAAAAAGGUGAGUG | SPSB3 | 0.1556
UAGUCUAUAAUCCAGUUUG | NAPEPLD | 1.294
UGAUGGAUUACUAAUGAGC | STAG3L4 | 0.4436
UUAGUGCUGAUACCAAAUC | FA2H | -0.1233
UACGUGAAGAGAGCUAGGC | NEO1 | -0.549
AUAAGGGACACCUUGAUCU | KANSL3 | 0.2792
UUCAUGGACACCGUGUUCU | CCDC33 | -0.9592
AUGCUGAAAGUAAAAUACC | PMCH | 2.092
UCCAUGAUCAAUCAGGGCC | CYP2C18 | -0.5455
UGUUUUCCCAAGGCGGAGC | APOA1 | -0.4955
UUUGAUGGAACUGACAUAC | FAM120C | -1.26
UACUUUAUGAGAGACAGGC | DDOST | -1.134
UCACUAUGAAUGUUUAUUC | SRD5A2 | 0.1707
UGCUAGAAAACUUCUGGGC | NET1 | 0.02375
AAAUUCCUGAGACAAGUCU | UGT1A6 | -0.08562
UAGAGGUUCACACUCAGGU | GDPD5 | -0.7136
UAAGUUAAUAGAGAUGCUC | MRGPRG-AS1 | 0.2243
UGCGGAUUUAGUGUGGAGC | PRKCA | 0.3279
UCUCUAAAGAGAUAACUGC | NDNF | -0.1759
UACAGUAAGGUUGAUGGUC | HEPACAM | 0.0257
UAAUUUCAUCAAUGCAACC | ZFAND1 | -0.6297
UGAUGGAACUGUUCCCAGU | DCTPP1 | 1.775
UUGAAUCCAAUGGUGAGUC | TICRR | 0.211
UUAAUGAAGCUUUAUGGAC | C14orf28 | 0.5951
CCUGAUCCCACAGAAUGCC | LINC00176 | -0.3985
UGAUGUAAAAGCGGAAGAU | CCDC94 | 0.7305
UUCUGAUUCACUCCGAGGC | CAST | -1.238
UGUUCAAUCACUAUAAGAG | LOC650181 | 0.6497
UAAGUGGUUUUGUUGUUGG | NDUFA12 | 0.599
UCAUAGUCGAACACGAAGC | CSNK1G2 | 0.0985
UUAGUCUUGCGCAUGGAGG | SLC2A8 | -0.4195
AUCGGAAUGGUUUCUCUGC | ZNF224 | 0.2565
UAGAUGAAAAGUCUUUCUG | FER1L6-AS1 | -0.3732
UCCUGAAUUCGGAAAGGUC | PPM1F | 0.3789
UCUGUGGUCUACAGGAUAC | KRTAP26-1 | -0.189
UUUCGAGUGAUGUUCAUUG | OSTM1 | 0.6317
UGUAGAGCAAGAUCUUCGC | CEP135 | 0.162
AUAAGAAUGGGUUAGGACC | OR51S1 | -1.228
UCUCGAACAUGGGUGAUGG | GRIK3 | 0.2019
UACGAAAUACCAGAAGCUC | MALRD1 | -0.6686
UAAUGCCCAAGUAAAGAGC | CLDN2 | 0.08698
UUUUUCUCAGGAGUCUUUC | VSIG10L | 0.1345
UAAAUCUACAUUGUCGGAG | ATXN7L1 | 0.5366
UUUCAGGUCAAUGUAGUGC | NME2 | -0.05548
ACUCCUCCAAUCACAACUG | IFI27 | 0.1013
UUGAGGAUAGCAGUCAUGU | TMEM211 | 0.1409
UUGUUUCCGAGCGUGAUUC | NCOR2 | -0.1725
UUUGUUGAAGUCUUCCACG | PHF13 | 0.3282
UUGCAGAAAAUUUCACUCC | PCNA | -0.5476
UUACUGACUGUGCAAACUC | TBC1D23 | -0.4451
UUCAUACUCUUAGUCAUGC | LOC100506514 | -0.1775
AGUAAAUCAGGAUUUUUCU | CFAP126 | 0.08016
UGAGGCAUAGCUCCUGAGC | TH | 0.5416

Some entries from above, unchanged:

{"sequence": "UUAGUCUUGCGCAUGGAGG", "target gene": "SLC2A8", "seed-corrected z-score": "-0.4195"}
{"sequence": "UAAAUCUACAUUGUCGGAG", "target gene": "ATXN7L1", "seed-corrected z-score": "0.5366"}
{"sequence": "UAGUCUAUAAUCCAGUUUG", "target gene": "NAPEPLD", "seed-corrected z-score": "1.294"}
{"sequence": "UACUGUAGACAUACAAGCG", "target gene": "DISP3", "seed-corrected z-score": "1.902"}
{"sequence": "UGAUCACUCAGAAACGUCG", "target gene": "KRTAP5-2", "seed-corrected z-score": "-1.948"}
{"sequence": "UUAGUGCUGAUACCAAAUC", "target gene": "FA2H", "seed-corrected z-score": "-0.1233"}
{"sequence": "UAAUGCCCAAGUAAAGAGC", "target gene": "CLDN2", "seed-corrected z-score": "0.08698"}

The results are deposited in PubChem (AID1159506; NCATS, 2015).